In patent publication US20250074997A1 (PERSONGEN BIOTHERAPEUTICS SUZHOU, published 2025):
Results are given in words; binding and its absence hold for the method and conditions named. Some binding calls cover weakened binding; strength is not graded here.

Sequences of proteins named here, by UniProt entry; tags and fusion partners are left off. A change or cut given only in a name is not applied to a line headed by its entry. Residues count along the entry.
UniProt Q03405: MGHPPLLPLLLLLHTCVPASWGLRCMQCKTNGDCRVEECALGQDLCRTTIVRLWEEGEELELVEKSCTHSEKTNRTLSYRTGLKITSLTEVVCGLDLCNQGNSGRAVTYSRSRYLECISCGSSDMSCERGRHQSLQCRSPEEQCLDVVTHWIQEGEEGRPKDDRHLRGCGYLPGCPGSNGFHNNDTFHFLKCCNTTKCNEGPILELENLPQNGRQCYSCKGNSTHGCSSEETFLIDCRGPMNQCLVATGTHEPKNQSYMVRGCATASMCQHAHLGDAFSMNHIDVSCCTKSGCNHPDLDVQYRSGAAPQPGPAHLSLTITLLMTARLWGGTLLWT
UPAR on CHO-S/UPAR cells: residues 23-305 of Q03405

Tests used:
UPAR on CHO-S/UPAR cells = UPAR on CHO-S/UPAR cells (UniProt Q03405); assay: flow cytometry on CHO-S/UPAR and parental CHO-S cells, purified antibody, PE-anti-human IgG
[1] = target: T1, UPAR-His recombinant protein (UniProt Q03405 23-303); assay: SPR (BiaCore T200), UPAR recombinant protein immobilised on CM5 chip
T1 construct: range 23-303; Expressed in 293 cells, purified on Ni-NTA; Biotinylated in the uPA ELISA; also called UPAR-His antigen; biotinUPAR-His; not shown: C-terminal His tag

Binder	binding (UPAR on CHO-S/UPAR cells)	binding [1]
pcDNA3.4-SDAB20-7-26-2-1-B4-hFC (Fc fusion, not shown: a dimerising Fc or GST) QVQLVESGGGLVQPGGSLRLSCAASGFTLDYYAIGWFRQAPGKEREGVSCISSTGGSTNYADSVKGRFTISRDNAKNTVYLQMNSLKPEDTAVYYCAADTHYLTVCYDRLGFDYWGQGTQVTVSS	binds	–
pcDNA3.4-SDAB20-7-26-2-1-F1-hFC (Fc fusion, not shown: a dimerising Fc or GST) EVQLAESGGGLVQPGGSLRLSCAASGFTFSSYTMSWVRQAPGKGLEWVSAIDSDGGVTSYADSVKGRFTISRDNAKNTLYLQMNSLKPEDTAVYYCANGGYCSGYGCYPRLLSQGTLVTVSS	binds	–
pcDNA3.4-SDAB20-7-26-2-1-F9-hFC (Fc fusion, also called 1-F09; not shown: human IgG1 Fc from vector pcDNA3.4-hIgG1-Fc2) QSLLVESGGGLVQPGGSLRLSCAASGFSLDYYAIGWFRQAPGKEREEVSCISSGGGSTNYADSVKGRFTISRDNAKNTVYLQMNSLKPEDTAVYYCAAKRNFMLYLVQCPYEYDYWGQGTQVTVSS	binds	binds
pcDNA3.4-SDAB20-7-26-2-1-F10-hFC (Fc fusion, not shown: a dimerising Fc or GST) QVQLVESGGGLVQPGGSLRLSCAASGSILSIRAVGWYRQAPGKQRELVALITSDGTTHYALSVKGRFTISRDNAKTTVYLQMNSLKPEDTAVYYCNREDYARRYWGQGTQVTVSS	binds	–
pcDNA3.4-SDAB20-7-26-2-1-G1-hFC (Fc fusion, not shown: a dimerising Fc or GST) QVQLVESGGGLVQPGGSLRLSCAASGNSLRRYAIGWFRQAPGKEREGVVCISTVGGSSYYVDSVKGRFTISEDNVKNTAYLQMNSLEPEDTAVYYCAAANRLYCPAYGSAGYDYWGQGTQVTVSS	binds	–
pcDNA3.4-SDAB20-7-26-2-1-G2-hFC (Fc fusion, not shown: a dimerising Fc or GST) QSQLAESGGGLVQPGGSLRLSCVASRFSLDAYAIAWFRQAPGKEREGVSCISSIGGRTNYADPVKGRFTISRDNAKNTAYLEMNSLQPEDTAVYYCAAVQRLFGPCLLSGGMDYWGKGTPVTVSS	binds	–
pcDNA3.4-SDAB20-7-26-2-1-H8-hFC (Fc fusion, not shown: a dimerising Fc or GST) QRQLVESGGGLVQPGGSLRLSCAVSEFTLDYYAIGWFRQAPGKEREGVSCISSSGGSTVYADSVKGRFTISADNAKNTVYLQMNSLKPEDTAVYYCAAGSLLLFRLCVSRLYEYDYWGQGTQVTVSS	binds	–
pcDNA3.4-SDAB20-7-26-2-3-E03-hFC (Fc fusion, not shown: a dimerising Fc or GST) AVQLVDSGGGLVQAGGSLRLSCAASGIRLSSNAMAWYRQAPGKQRGLVALITSDGTTNYVDSVKGRFTISRDNAKNTVYLQMNSLKPEDTAVYYCKREPYLSTRGYWGQGTQVTVSS	binds	–
pcDNA3.4-SDAB20-7-26-2-3-E04-hFC (Fc fusion, Llama VHH fused in tandem with human IgG1 Fc, expressed in 293 cells, purified on protein A; not shown: human IgG1 Fc from vector pcDNA3.4-hIgG1-Fc2) QLRLVESGGGLVQPGGSLRLSCAASGFTLDYYDIGWFRQAPGKEREGVSCIGRISGDTDYAESVKGRFTASRDNAKNTVYLQMNSLKPEDTAVYYCAAERRFFGGGCRRSVDNMDSWGKGTLVTVSS	binds	binds
pcDNA3.4-SDAB20-7-26-2-3-E06-hFC (Fc fusion, not shown: a dimerising Fc or GST) EVQLVESGGGLVQAGGSLTLSCVASASGSILRLNAMGWYRQAPAKQRELVALITRDGSTNYPDSVKGRFTISRDNAKNTVYLQMSSLSPEDTAVYYCYVQNHYSNYWGQGTQVTVSS	binds	–
pcDNA3.4-SDAB20-7-26-2-3-E09-hFC (Fc fusion, not shown: a dimerising Fc or GST) AVQLVDSGGGLVQPGGSLRLSCAASGFTFSSYAMGWARQVPGKGLEWVSIIYRDGNTYYTDSVKGRFTISRDNAKNTVYLQMNSLKPEDTAVYYCAPVETVAARRRDYWGQGTQVNVSS	binds	–
pcDNA3.4-SDAB20-7-26-2-3-E10-hFC (Fc fusion, not shown: a dimerising Fc or GST) AVQLVDSGGGLVQPGGSLRLSCAASGFTFSSYAMGWARQVPGKGLEWVSIIYRDGNTYYTDSVKGRFTISRDNAKNTVYLQMNSLKPEDTAVYYCAPVETVAARRRDYWGQGTQVNVSS	binds	–
pcDNA3.4-SDAB20-7-26-2-3-G07-hFC (Fc fusion, not shown: a dimerising Fc or GST) RLQLVESGGGLVQPGGSLRLSCAVSGKALDYYSIGWFRQAPRKQREGVSCISSSGGSTNYADSVKGRFTISRDNAKDTVYLQMNSLKPEDTADYYCAVVSTVLCGLGIYEYDYWGQGTLVTVSS	binds	–
pcDNA3.4-SDAB20-7-26-2-3-H02-hFC (Fc fusion, Llama VHH fused in tandem with human IgG1 Fc, expressed in 293 cells, purified on protein A; not shown: human IgG1 Fc from vector pcDNA3.4-hIgG1-Fc2) QLTLVESGGGLVQPGGSLRLSCAASEFTLDYYAIGWFRQAPGKEREGVSCISSSDGSTYYADSVKGRFTISRDNAKNTVYLQMNSLKPEDTAVYYCAIGGLLLLRLWERGNYEFDYWGQGTQVTVSS	binds	binds
